# In PubChem BioAssay AID1487 (National Center for Advancing Translational Sciences (NCATS), 2009):
# Some of the results follow. Shown are side measurements of this screen, not its main read-out; they come without a call. Compounds called inactive in the main read-out are mostly missing here. Potencies come from curve fits of mixed quality, noted in brackets.
# Assay: qHTS Assay for Modulators of Lamin A Splicing
# Settings: HeLa LMNA splicing GFP/RFP minigene ratio, 48 h
# Summary of the method: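 Read-out is the ratio of GFP to DsRed2 object intensity, acquired by 488 nm laser-scanning cytometry on HeLa lamin A-EGFP minigene reporter cells. Compound incubation 48 hrs at 37 °C in Opti-MEM with 2% FBS; DMSO 0.5% final.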
# [1] = measured here: RFP viability control channel
# [2] = measured here: GFP splicing reporter channel
Compound,AC50 [1],AC50 [2]
Cc1cc(C)n(-c2nnc(SCC(=O)NC3CCCC3)c3ccccc23)n1,"35.5 µM [rising, single point]",–
COc1ccc(-n2c(SCc3ccccc3F)nc3c([nH]c4ccccc43)c2=O)cc1OC,"5.01 µM [falling, full curve]","7.08 µM [falling, full curve]"
Cc1ccccc1NC(=O)C(C)c1ccc(-c2ccccc2)c(F)c1 (stereo unspecified),"31.6 µM [rising, single point]",–
Cc1cc(/C=C(/C#N)C(=O)O)c(C)n1CCC(C)C,"11.2 µM [rising, single point]","11.2 µM [rising, partial curve]"
CCOc1cc(Br)c(C=O)cc1OCC,–,"35.5 µM [falling, partial curve, poor fit]"
COCCNC(=O)CSc1nc2c(n1-c1ccccc1)CCCC2,–,"14.1 µM [rising, partial curve]"
O=[N+]([O-])c1cccc(/C=C/C=N/Nc2nc(N3CCCCC3)nc(N3CCCCC3)n2)c1,"0.0141 µM [falling, full curve, poor fit]",–
Cc1cccc(C(=O)NC(=S)Nc2ccc(N3CCOCC3)cc2)c1,"35.5 µM [rising, single point]","28.2 µM [rising, single point]"
COc1ccc(C(=O)N2CCOC2CNC(=O)C(=O)NCc2ccc(Cl)cc2)cc1 (stereo unspecified),"6.31 µM [rising, partial curve]","0.141 µM [rising, partial curve]"
O=C(COc1ccc(C(=O)c2ccc(F)cc2)cc1)NCc1ccc(F)cc1,"0.794 µM [rising, full curve, poor fit]",–
O=C1Nc2ccc(I)cc2/C1=C/c1cc(Br)c(O)c(Br)c1,"11.2 µM [falling, partial curve]","12.6 µM [falling, partial curve]"
O=C(COC(=O)c1ccccc1C(=O)c1ccccc1)Nc1cccc([N+](=O)[O-])c1,"11.2 µM [rising, partial curve]","7.94 µM [rising, partial curve]"
COc1ccc(C(=O)C(CN2CCOCC2)c2ccccc2)cc1F (stereo unspecified),"35.5 µM [falling, single point]",–
O=C1c2ccccc2NC(c2c(Cl)cccc2Cl)N1Cc1ccccc1 (stereo unspecified),"22.4 µM [falling, partial curve, poor fit]",–
Cc1ccc(C(=O)CSc2ccc(-c3ccccc3)nn2)cc1,"15.8 µM [rising, partial curve, poor fit]",–
Cc1nnc(SCC(=O)N/N=C/c2cn(-c3ccccc3)nc2-c2ccccc2)n1-c1ccccc1,"0.0355 µM [falling, single point]","0.0251 µM [falling, partial curve]"
Cc1nc2ccccc2c2oc(C(=O)NCC3COc4ccccc4O3)cc12 (stereo unspecified),"6.31 µM [rising, partial curve]",–
Cn1nc(CC(=O)Nc2ncc(Br)s2)c2ccccc2c1=O,"7.08 µM [rising, full curve]","3.16 µM [rising, full curve]"
NC(=O)c1ccccc1NC(=O)CN1c2ccccc2S(=O)(=O)c2ccccc21,"5.62 µM [rising, single point]",–
CCOC(=O)C(C)Sc1ncc(-c2ccc(Cl)cc2)cn1 (stereo unspecified),"0.0178 µM [rising, full curve, poor fit]","0.0251 µM [rising, full curve, poor fit]"
Cc1cc(C(=O)OCC(=O)N2CCOCC2)ccc1[N+](=O)[O-],"0.0631 µM [falling, full curve, poor fit]",–
FC(F)(F)c1ccc2c(c1)n(Cc1ccccc1)c1[n+]2CCCCC1,–,"0.282 µM [rising, full curve, poor fit]"
CC(C)C(=O)Nc1nc(-c2ccc([N+](=O)[O-])cc2)cs1,"1.26 µM [falling, full curve, poor fit]",–
CCOc1ccc(OCC)c(NC(=O)c2cnc(SC)nc2-c2ccccc2)c1,"11.2 µM [rising, partial curve]",–
Cc1ccc(C)c(NC(=O)CSc2nc3c([nH]c4ccccc43)c(=O)n2-c2ccc(F)cc2)c1,"15.8 µM [falling, single point]",–
COc1ccc2c(c1)C=CC1(O2)N(CCO)c2ccccc2C1(C)C (stereo unspecified),"3.16 µM [falling, full curve]",–
O=C(Oc1cccc(Nc2ncnc3ccccc23)c1)c1ccccc1Cl,"11.2 µM [rising, partial curve]",–
Cc1sc2nc(C3CC3)nc(SCC(=O)N3c4ccccc4CC3C)c2c1C (stereo unspecified),"4.47 µM [rising, single point]",–

# Some values from the entries so far.
# AC50 [1], `CCOC(=O)C(C)Sc1ncc(-c2ccc(Cl)cc2)cn1` (stereo unspecified) reads 0.0178 µM [rising, full curve, poor fit]
# AC50 [1], `Cc1ccc(C)c(NC(=O)CSc2nc3c([nH]c4ccccc43)c(=O)n2-c2ccc(F)cc2)c1` reads 15.8 µM [falling, single point]
# AC50 [1], `Cc1nc2ccccc2c2oc(C(=O)NCC3COc4ccccc4O3)cc12` (stereo unspecified) reads 6.31 µM [rising, partial curve]

# Later entries:

Compound,AC50 [1],AC50 [2]
Cn1nc(-c2ccc(Cl)cc2)c2cc(C(=O)NCCCN3CCOCC3)sc21,"35.5 µM [rising, single point]",–
O=C(c1c(O)c2ccccc2oc1=O)C1CCC1,"12.6 µM [rising, single point]",–
CC(C)c1cc(C(=O)N2CCCC(CCC(=O)NCc3ccccc3F)C2)n(C)n1 (stereo unspecified),"6.31 µM [falling, partial curve, poor fit]",–
Cc1ccc(C(=O)C(c2ccccc2)N2Cc3ccccc3C2=N)cc1 (stereo unspecified),"5.01 µM [rising, single point]","35.5 µM [falling, single point]"
COCCSc1nnc(NC(=O)C2CC(=O)N(c3ccc(Cl)cc3)C2)s1 (stereo unspecified),"0.355 µM [falling, partial curve]","4.47 µM [falling, partial curve]"
O=C1CSC2(CCN(CCCN3c4ccccc4Sc4ccc(Cl)cc43)CC2)N1,"10 µM [falling, partial curve]","17.8 µM [rising, single point]"
CCCC(=O)OCCNc1cc(SCc2ccco2)c2nonc2c1[N+](=O)[O-],"17.8 µM [falling, partial curve]","20 µM [falling, partial curve]"
COc1ccc(C(=O)N/N=C/c2c(CO)cnc(C)c2O)cc1,–,"31.6 µM [falling, single point]"
COc1ccc(NS(=O)(=O)c2ccc(Br)s2)cc1OC,"8.91 µM [rising, partial curve]","4.47 µM [rising, single point]"
C=CCN1C(=O)C(CC(=O)Nc2ccc(OC)cc2)N(Cc2ccco2)C1=S (stereo unspecified),–,"22.4 µM [rising, single point]"
COc1cc(C=NCC2OCCc3ccccc32)cc(OC)c1 (stereo unspecified),–,"0.1 µM [rising, full curve]"
CCOC(=O)C1C(c2cc(OC)c(OC)c(OC)c2)NC(=S)NC1(O)C(F)(F)F (stereo unspecified),"0.00447 µM [falling, full curve, poor fit]",–
O=S(=O)(c1ccc(Cl)s1)N1CCN(Cc2ccccc2)CC1,"14.1 µM [rising, single point]","20 µM [rising, single point]"
COc1cc(Cl)c(C)cc1NC(=S)NN,"14.1 µM [rising, single point]",–
COc1cc2ccc(=O)oc2cc1O,–,"0.0631 µM [falling, full curve, poor fit]"
CCCn1nnc(NC(=O)COc2ccc(C3CCCCC3)cc2)n1,–,"35.5 µM [rising, single point]"
O=C(Nc1ccc2c(c1)CCC2)c1cc(S(=O)(=O)Nc2ccc(F)cc2)c(Cl)cc1Cl,"5.62 µM [rising, full curve, poor fit]","17.8 µM [falling, single point]"
Cc1cc(/C=N\NC(=O)COc2cccc3cccnc23)c(C)n1-c1ccc(Br)cc1,"12.6 µM [rising, partial curve]","12.6 µM [rising, partial curve]"
COc1cc(NS(=O)(=O)c2ccc(N)cc2)nc(OC)n1,"0.00178 µM [rising, full curve, poor fit]","0.000708 µM [rising, full curve, poor fit]"
CCOC(=O)CC(=O)CSc1nc2c(sc(=S)n2-c2ccc(OCC)cc2)c(=O)[nH]1,"2.82 µM [falling, partial curve]","1.58 µM [falling, partial curve]"
Cc1ccc(NC2=C(Cl)C(=O)OC2NC(=O)c2ccccc2)cc1 (stereo unspecified),"35.5 µM [rising, single point]",–
CC[N+](CC)(CC(=O)Nc1c(C)cccc1C)Cc1ccccc1,"0.00447 µM [falling, full curve, poor fit]","0.0282 µM [falling, full curve, poor fit]"
CC(C)OC(=O)c1cc2c(ccn2C)n1CC(=O)N(Cc1ccccc1)c1ccc(F)cc1,"11.2 µM [rising, partial curve]",–
CCC(C)c1c(O)nc(SCC(=O)c2ccccc2)[nH]c1=O (stereo unspecified),"11.2 µM [rising, single point]",–
CCOc1cc(/C=C2\SC(=N)N(c3nonc3N)C2=O)ccc1OCCN1CCOCC1,–,"12.6 µM [falling, partial curve, poor fit]"
O=c1c(-c2ccc(F)cc2)nc2cnc(N3CCNCC3)nc2n1-c1ccccc1,"22.4 µM [falling, single point]","12.6 µM [falling, partial curve, poor fit]"
O=C(O)CCN1C(=O)c2ccc(NC(=O)c3ccco3)cc2C1=O,–,"0.0224 µM [falling, full curve, poor fit]"
